Assay results: article PMC7862700
The list shows a part of the results, in another mix than the full data. At the low end of the ranking, values are background and their order means little.

What was measured:
Experiment in all cases: DAPPL (digital affinity profiling via proximity ligation, sequencing)
Settings in all cases: 10 mM Tris-HCl pH 7.5, 50 mM NaCl, 1 mM DTT, 4% glycerol, room temperature, 30 min; GST-TFs on glutathione beads, 16-mer random dsDNA library, 0.1% …; high values mean tight binding; double strand, one strand shown; scale: fold enrichment (6-mer frequency, TF over GST control)
ELK1 = target: T1, ELK1 (UniProt P19419)
T1 sequence: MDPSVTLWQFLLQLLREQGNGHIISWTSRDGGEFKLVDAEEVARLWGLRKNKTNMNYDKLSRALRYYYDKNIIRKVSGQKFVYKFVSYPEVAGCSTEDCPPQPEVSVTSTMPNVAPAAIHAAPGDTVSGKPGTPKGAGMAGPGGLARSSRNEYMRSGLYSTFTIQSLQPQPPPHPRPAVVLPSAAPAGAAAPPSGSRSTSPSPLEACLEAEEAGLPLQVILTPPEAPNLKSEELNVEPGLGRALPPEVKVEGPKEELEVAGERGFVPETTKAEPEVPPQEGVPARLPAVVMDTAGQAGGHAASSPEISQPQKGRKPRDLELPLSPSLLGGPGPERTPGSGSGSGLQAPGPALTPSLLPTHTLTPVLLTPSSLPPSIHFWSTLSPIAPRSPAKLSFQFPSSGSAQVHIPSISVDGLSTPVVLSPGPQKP

ELK3 = target: T2, ELK3 (UniProt P41970)
T2 sequence: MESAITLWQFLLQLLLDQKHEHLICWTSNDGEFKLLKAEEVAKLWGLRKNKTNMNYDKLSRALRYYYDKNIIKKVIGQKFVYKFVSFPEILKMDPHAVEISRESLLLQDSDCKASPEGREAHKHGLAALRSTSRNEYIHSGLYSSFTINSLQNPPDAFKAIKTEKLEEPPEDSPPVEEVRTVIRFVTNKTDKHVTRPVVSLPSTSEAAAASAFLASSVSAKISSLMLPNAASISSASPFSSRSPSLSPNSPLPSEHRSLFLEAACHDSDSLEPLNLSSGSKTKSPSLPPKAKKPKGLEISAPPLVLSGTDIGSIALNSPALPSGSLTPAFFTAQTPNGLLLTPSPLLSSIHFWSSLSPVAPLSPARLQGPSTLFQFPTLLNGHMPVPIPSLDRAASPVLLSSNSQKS

SPIC = target: T3, SPIC (UniProt Q8N5J4)
T3 sequence: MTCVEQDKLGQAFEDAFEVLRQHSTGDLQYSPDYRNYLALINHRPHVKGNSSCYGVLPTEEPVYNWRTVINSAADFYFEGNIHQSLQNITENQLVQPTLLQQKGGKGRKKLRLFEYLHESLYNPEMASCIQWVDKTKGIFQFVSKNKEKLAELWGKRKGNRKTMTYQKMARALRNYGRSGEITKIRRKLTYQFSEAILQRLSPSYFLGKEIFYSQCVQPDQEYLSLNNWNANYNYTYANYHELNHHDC

ETS2 = target: T4, ETS2 (UniProt P15036)
T4 sequence: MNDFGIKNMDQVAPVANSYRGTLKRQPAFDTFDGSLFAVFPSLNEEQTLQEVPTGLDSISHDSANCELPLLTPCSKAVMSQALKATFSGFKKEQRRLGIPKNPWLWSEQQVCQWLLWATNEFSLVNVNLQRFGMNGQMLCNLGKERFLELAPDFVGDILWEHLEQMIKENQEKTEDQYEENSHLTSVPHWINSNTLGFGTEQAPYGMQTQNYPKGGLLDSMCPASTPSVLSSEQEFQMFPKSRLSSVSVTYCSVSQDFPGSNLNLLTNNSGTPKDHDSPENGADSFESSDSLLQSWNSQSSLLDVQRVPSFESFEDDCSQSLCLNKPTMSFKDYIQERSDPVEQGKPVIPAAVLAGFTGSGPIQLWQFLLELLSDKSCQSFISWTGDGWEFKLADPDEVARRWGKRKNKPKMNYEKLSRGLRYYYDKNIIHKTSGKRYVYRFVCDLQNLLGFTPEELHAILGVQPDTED

ETV3 = target: T5, ETV3 (UniProt P41162-2)
T5 sequence: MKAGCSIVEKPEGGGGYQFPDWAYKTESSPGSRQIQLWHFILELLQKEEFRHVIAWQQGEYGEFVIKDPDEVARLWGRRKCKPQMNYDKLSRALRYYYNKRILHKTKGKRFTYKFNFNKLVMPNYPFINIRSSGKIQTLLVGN

Sequence | binding signal (ELK1) | binding signal (ELK3) | binding signal (SPIC) | binding signal (ETS2) | binding signal (ETV3)
GGAATA | 0.854 | 0.921 | 0.831 | 0.903 | 0.888
AGAAGA | 0.898 | 0.86 | 0.98 | 0.913 | 0.905
GGCATA | 0.988 | 0.847 | 0.867 | 0.95 | 0.933
AGAGAA | 0.821 | 0.863 | 0.793 | 0.833 | 0.818
TCCGAG | 0.9 | 0.885 | 0.882 | 0.888 | 0.995
CTAGTG | 0.865 | 0.891 | 0.8 | 0.846 | 0.796
CATAAA | 1 | 0.994 | 0.994 | 0.98 | 0.982
TCCAGA | 0.825 | 0.843 | 0.778 | 0.882 | 0.889
CGTACG | 0.976 | 0.981 | 0.983 | 0.984 | 0.988
TTGGGA | 0.975 | 0.894 | 1 | 0.868 | 0.93
TCCAGT | 0.616 | 0.726 | 0.693 | 0.64 | 0.682
GGATCA | 0.811 | 0.876 | 0.825 | 0.789 | 0.739
GTGCCC | 0.975 | 0.917 | 0.872 | 0.926 | 0.94
GCGAAA | 0.969 | 0.864 | 0.893 | 0.946 | 0.885
CGGCAC | 0.924 | 0.942 | 0.972 | 0.932 | 1.03
ATCAGA | 0.907 | 0.938 | 0.891 | 0.907 | 0.987
AGAAGG | 0.675 | 0.698 | 0.64 | 0.753 | 0.656
AGTGTA | 0.909 | 0.943 | 1.19 | 0.949 | 0.977
GTTCGT | 0.963 | 0.977 | 1.12 | 0.957 | 0.905
CAGATC | 0.947 | 0.893 | 0.869 | 0.903 | 0.927
GTCTAG | 0.817 | 0.879 | 0.855 | 0.849 | 0.898
TTAGTG | 0.862 | 0.896 | 0.615 | 0.911 | 0.853
ACAAGT | 0.892 | 0.914 | 0.885 | 0.939 | 0.948
AGAACC | 0.946 | 0.889 | 1.03 | 0.903 | 0.872
CATAAG | 0.965 | 0.949 | 0.935 | 0.961 | 0.976
GAGCTC | 0.923 | 0.85 | 0.963 | 0.898 | 0.838
GTGTTG | 0.95 | 0.815 | 0.952 | 0.811 | 0.994

Record cards (already shown). Order of values: binding signal (ELK1)	binding signal (ELK3)	binding signal (SPIC)	binding signal (ETS2)	binding signal (ETV3)
GGCATA is listed as 0.988	0.847	0.867	0.95	0.933
GCGAAA is listed as 0.969	0.864	0.893	0.946	0.885
